Assay results as given in article PMC11253597.

Amino acid sequences for entries named in this document (tags omitted). A change or cut given only in a name is not applied to a line headed by its entry.
UniProt Q8ZMM9: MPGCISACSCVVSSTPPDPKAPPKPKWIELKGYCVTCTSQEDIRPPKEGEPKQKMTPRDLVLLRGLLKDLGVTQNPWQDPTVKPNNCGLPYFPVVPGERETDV
UniProt Q13425: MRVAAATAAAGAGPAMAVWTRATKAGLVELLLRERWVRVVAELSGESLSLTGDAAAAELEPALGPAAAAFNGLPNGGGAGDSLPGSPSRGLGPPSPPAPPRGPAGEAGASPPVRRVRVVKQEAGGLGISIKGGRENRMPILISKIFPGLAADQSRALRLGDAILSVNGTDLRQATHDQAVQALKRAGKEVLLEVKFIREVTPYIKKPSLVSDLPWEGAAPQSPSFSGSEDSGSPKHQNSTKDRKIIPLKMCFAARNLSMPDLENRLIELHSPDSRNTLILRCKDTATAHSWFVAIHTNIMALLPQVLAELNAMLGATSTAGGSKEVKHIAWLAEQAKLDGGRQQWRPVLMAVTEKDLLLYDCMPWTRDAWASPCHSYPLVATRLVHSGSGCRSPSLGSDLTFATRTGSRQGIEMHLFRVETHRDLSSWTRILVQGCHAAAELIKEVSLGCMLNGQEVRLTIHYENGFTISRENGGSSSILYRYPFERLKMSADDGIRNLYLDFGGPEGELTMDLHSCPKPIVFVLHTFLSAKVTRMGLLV
UniProt Q9BVA1: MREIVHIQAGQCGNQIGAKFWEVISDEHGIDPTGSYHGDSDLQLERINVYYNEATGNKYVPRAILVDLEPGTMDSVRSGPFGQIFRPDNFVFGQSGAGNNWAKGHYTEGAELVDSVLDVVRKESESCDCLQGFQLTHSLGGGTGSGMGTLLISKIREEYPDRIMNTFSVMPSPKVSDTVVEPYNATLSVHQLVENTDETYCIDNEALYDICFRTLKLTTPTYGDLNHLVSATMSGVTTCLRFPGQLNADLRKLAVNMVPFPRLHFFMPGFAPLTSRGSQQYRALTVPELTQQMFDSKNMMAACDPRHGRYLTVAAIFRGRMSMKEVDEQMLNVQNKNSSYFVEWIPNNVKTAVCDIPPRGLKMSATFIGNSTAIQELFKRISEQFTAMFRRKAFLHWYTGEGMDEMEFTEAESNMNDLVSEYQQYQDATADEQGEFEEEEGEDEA
UniProt P46939: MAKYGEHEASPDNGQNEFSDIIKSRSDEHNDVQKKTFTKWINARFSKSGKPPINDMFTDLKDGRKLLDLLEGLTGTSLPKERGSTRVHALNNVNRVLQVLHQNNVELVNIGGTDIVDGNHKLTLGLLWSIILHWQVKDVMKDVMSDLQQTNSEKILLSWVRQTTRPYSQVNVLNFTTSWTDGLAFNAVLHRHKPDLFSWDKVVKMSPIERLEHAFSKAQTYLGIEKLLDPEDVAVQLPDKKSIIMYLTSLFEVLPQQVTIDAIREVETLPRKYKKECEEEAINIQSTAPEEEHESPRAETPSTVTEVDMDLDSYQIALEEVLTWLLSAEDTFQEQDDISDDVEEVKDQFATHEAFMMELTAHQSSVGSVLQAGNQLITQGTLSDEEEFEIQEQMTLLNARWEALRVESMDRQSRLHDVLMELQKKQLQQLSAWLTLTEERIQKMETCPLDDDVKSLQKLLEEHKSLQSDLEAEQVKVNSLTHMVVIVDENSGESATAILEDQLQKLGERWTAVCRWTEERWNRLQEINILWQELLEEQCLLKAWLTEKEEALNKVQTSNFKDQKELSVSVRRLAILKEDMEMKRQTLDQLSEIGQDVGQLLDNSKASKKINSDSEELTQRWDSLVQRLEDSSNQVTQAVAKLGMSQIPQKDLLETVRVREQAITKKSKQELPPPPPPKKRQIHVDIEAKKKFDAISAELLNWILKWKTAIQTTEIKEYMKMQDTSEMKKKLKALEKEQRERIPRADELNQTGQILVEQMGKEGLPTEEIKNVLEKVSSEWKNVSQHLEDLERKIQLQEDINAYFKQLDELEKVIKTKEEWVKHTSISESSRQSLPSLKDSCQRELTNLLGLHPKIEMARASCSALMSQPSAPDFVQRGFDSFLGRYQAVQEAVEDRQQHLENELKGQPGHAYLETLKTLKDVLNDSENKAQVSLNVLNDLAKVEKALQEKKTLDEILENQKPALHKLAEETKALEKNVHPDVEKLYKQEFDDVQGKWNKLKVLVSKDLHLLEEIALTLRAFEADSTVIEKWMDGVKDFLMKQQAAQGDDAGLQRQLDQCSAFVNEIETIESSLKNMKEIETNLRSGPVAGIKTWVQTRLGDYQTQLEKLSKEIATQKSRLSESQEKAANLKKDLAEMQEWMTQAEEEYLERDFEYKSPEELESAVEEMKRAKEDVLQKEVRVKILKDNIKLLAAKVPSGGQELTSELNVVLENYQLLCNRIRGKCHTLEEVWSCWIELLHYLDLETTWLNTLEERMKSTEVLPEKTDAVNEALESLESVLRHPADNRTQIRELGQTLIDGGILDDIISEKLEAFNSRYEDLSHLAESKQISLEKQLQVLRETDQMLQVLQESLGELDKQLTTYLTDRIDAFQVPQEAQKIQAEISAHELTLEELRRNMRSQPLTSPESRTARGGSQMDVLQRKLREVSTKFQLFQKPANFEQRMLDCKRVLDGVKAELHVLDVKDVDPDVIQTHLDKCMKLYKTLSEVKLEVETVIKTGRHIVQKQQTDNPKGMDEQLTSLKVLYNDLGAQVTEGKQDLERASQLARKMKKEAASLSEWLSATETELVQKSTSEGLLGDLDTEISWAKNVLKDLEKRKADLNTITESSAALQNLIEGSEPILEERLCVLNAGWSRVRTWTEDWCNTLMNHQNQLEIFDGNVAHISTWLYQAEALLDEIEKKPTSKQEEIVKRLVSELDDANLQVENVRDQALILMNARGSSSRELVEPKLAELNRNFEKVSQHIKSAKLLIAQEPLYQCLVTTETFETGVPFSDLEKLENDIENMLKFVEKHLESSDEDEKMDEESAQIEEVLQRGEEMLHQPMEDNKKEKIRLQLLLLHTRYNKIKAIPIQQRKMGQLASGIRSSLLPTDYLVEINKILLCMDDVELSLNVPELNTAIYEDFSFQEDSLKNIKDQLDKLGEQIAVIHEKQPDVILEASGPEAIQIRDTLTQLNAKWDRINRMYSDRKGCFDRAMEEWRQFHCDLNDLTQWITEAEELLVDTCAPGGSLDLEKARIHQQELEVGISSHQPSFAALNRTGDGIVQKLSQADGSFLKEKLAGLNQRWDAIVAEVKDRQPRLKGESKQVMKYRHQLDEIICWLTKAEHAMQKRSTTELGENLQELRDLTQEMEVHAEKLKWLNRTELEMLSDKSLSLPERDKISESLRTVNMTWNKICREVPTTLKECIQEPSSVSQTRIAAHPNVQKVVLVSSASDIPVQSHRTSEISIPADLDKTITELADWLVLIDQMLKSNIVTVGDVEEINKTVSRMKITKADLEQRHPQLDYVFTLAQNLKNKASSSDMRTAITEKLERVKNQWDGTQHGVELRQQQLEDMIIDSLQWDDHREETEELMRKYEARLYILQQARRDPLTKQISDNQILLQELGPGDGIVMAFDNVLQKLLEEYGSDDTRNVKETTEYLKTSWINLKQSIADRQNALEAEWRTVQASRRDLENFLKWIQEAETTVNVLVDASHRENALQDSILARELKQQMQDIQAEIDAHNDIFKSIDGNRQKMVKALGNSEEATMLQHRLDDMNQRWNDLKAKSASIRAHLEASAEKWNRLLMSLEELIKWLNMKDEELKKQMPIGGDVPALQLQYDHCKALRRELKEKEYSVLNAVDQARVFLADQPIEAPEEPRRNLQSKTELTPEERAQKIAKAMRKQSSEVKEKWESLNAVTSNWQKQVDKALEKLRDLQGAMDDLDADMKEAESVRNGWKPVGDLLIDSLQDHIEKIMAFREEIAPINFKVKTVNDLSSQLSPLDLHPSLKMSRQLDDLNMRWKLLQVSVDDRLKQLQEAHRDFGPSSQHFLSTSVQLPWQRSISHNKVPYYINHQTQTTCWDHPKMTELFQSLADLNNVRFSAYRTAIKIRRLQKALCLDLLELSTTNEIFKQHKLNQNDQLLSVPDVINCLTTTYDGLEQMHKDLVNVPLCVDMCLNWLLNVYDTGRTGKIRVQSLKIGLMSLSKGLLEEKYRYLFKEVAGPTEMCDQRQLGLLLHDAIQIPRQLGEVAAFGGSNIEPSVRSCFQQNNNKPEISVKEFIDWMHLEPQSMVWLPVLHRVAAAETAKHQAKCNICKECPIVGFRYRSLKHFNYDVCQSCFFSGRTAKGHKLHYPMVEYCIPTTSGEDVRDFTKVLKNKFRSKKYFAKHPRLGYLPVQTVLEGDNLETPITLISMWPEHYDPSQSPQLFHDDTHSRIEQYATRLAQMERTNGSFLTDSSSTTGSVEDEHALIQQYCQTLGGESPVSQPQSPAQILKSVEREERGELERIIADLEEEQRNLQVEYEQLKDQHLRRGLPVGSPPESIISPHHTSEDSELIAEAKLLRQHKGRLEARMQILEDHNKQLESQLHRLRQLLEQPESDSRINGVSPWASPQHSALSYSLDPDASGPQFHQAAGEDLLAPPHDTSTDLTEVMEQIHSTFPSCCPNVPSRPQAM
UniProt O43242: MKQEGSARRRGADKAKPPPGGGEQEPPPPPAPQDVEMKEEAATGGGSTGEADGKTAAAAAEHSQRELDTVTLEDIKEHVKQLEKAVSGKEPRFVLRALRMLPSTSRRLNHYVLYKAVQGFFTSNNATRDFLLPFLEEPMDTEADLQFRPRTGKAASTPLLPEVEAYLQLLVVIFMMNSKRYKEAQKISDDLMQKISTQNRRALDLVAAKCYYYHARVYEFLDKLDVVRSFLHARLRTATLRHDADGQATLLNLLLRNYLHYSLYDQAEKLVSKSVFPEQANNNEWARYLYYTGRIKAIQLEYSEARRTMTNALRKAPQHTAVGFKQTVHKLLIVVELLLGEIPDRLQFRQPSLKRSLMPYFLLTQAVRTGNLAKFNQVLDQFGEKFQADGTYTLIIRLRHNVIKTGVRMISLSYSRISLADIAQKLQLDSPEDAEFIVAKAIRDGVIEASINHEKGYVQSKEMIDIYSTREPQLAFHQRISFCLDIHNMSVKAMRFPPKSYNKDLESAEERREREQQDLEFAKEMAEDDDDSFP

B1: Protein lin-7 homolog C (protein, UniProt Q9NUP9 1-197)
chain: MAALGEPVRLERDICRAIELLEKLQRSGEVPPQKLQALQRVLQSEFCNAVREVYEHVYETVDISSSPEVRANATAKATVAAFAASEGHSHPRVVELPKTEEGLGFNIMGGKEQNSPIYISRIIPGGIADRHGGLKRGDQLLSVNGVSVEGEHHEKAVELLKAAQGKVKLVVRYTPKVLEEMESRFEKMRSAKRRQQT
B2: β-Dystrobrevin (protein, UniProt O60941 1-627)
chain: MIEESGNKRKTMAEKRQLFIEMRAQNFDVIRLSTYRTACKLRFVQKRCNLHLVDIWNMIEAFRDNGLNTLDHTTEISVSRLETVISSIYYQLNKRLPSTHQISVEQSISLLLNFMIAAYDSEGRGKLTVFSVKAMLATMCGGKMLDKLRYVFSQMSDSNGLMIFSKFDQFLKEVLKLPTAVFEGPSFGYTEHSVRTCFPQQRKIMLNMFLDTMMADPPPQCLVWLPLMHRLAHVENVFHPVECSYCRCESMMGFRYRCQQCHNYQLCQNCFWRGHAGGPHSNQHQMKEHSSWKSPAKKLSHAISKSLGCVPTREPPHPVFPEQPEKPLDLAHIVPPRPLTNMNDTMVSHMSSGVPTPTKRLQYSQDIPSHLADEHALIASYVARLQHCARVLDSPSRLDEEHRLIARYAARLAAEAGNVTRPPTDLSFNFDANKQQRQLIAELENKNREILQEIQRLRLEHEQASQPTPEKAQQNPTLLAELRLLRQRKDELEQRMSALQESRRELMVQLEELMKLLKEEEQKQAAQATGSPHTSPTHGGGRPMPMPVRSTSAGSTPTHCPQDSLSGVGGDVQEAFAQGTRRNLRNDLLVAADSITNTMSSLVKELHSAEEGAEEEEEKMQNGKDRG
B3: α-dystrobrevin (protein, UniProt Q9Y4J8 1-743)
chain: MIEDSGKRGNTMAERRQLFAEMRAQDLDRIRLSTYRTACKLRFVQKKCNLHLVDIWNVIEALRENALNNLDPNTELNVSRLEAVLSTIFYQLNKRMPTTHQIHVEQSISLLLNFLLAAFDPEGHGKISVFAVKMALATLCGGKIMDKLRYIFSMISDSSGVMVYGRYDQFLREVLKLPTAVFEGPSFGYTEQSARSCFSQQKKVTLNGFLDTLMSDPPPQCLVWLPLLHRLANVENVFHPVECSYCHSESMMGFRYRCQQCHNYQLCQDCFWRGHAGGSHSNQHQMKEYTSWKSPAKKLTNALSKSLSCASSREPLHPMFPDQPEKPLNLAHIVDTWPPRPVTSMNDTLFSHSVPSSGSPFITRSSPPKDSEVEQNKLLARAAPAFLKGKGIQYSLNVADRLADEHVLIGLYVNMLRNNPSCMLESSNRLDEEHRLIARYAARLAAESSSSQPPQQRSAPDISFTIDANKQQRQLIAELENKNREILQEIQRLRLEHEQASQPTPEKAQQNPTLLAELRLLRQRKDELEQRMSALQESRRELMVQLEGLMKLLKTQGAGSPRSSPSHTISRPIPMPIRSASACSTPTHTPQDSLTGVGGDVQEAFAQSSRRNLRNDLLVAADSITNTMSSLVKELNSEVGSETESNVDSEFARTQFEDLVPSPTSEKAFLAQIHARKPGYIHSGATTSTMRGDMVTEDADPYVQPEDENYENDSVRQLENELQMEEYLKQKLQDEAYQVSLQG
B4: α-Catulin (protein, UniProt Q9UBT7 1-734)
chain: MAASPGPAGVGGAGAVYGSGSSGFALDSGLEIKTRSVEQTLLPLVSQITTLINHKDNTKKSDKTLQAIQRVGQAVNLAVGRFVKVGEAIANENWDLKEEINIACIEAKQAGETIAALTDITNLNHLESDGQITIFTDKTGVIKAARLLLSSVTKVLLLADRVVIKQIITSRNKVLATMERLEKVNSFQEFVQIFSQFGNEMVEFAHLSGDRQNDLKDEKKKAKMAAARAVLEKCTMMLLTASKTCLRHPNCESAHKNKEGVFDRMKVALDKVIEIVTDCKPNGETDISSISIFTGIKEFKMNIEALRENLYFQSKENLSVTLEVILERMEDFTDSAYTSHEHRERILELSTQARMELQQLISVWIQAQSKKTKSIAEELELSILKISHSLNELKKELHSTATQLAADLLKYHADHVVLKALKLTGVEGNLEALAEYACKLSEQKEQLVETCRLLRHISGTEPLEITCIHAEETFQVTGQQIISAAETLTLHPSSKIAKENLDVFCEAWESQISDMSTLLREINDVFEGRRGEKYGYLSLPKPMKNNANLKSLKPDKPDSEEQAKIAKLGLKLGLLTSDADCEIEKWEDQENEIVQYGRNMSSMAYSLYLFTRGEGPLKTSQDLIHQLEVFAAEGLKLTSSVQAFSKQLKDDDKLMLLLEINKLIPLCHQLQTVTKTSLQNKVFLKVDKCITKTRSMMALLVQLLSLCYKLLKKLQMENNGWVSVTNKDTMDSKT
B5: α-1-Syntrophin (protein, UniProt Q13424 1-505)
chain: MASGRRAPRTGLLELRAGAGSGAGGERWQRVLLSLAEDVLTVSPADGDPGPEPGAPREQEPAQLNGAAEPGAGPPQLPEALLLQRRRVTVRKADAGGLGISIKGGRENKMPILISKIFKGLAADQTEALFVGDAILSVNGEDLSSATHDEAVQVLKKTGKEVVLEVKYMKDVSPYFKNSTGGTSVGWDSPPASPLQRQPSSPGPTPRNFSEAKHMSLKMAYVSKRCTPNDPEPRYLEICSADGQDTLFLRAKDEASARSWATAIQAQVNTLTPRVKDELQALLAATSTAGSQDIKQIGWLTEQLPSGGTAPTLALLTEKELLLYLSLPETREALSRPARTAPLIATRLVHSGPSKGSVPYDAELSFALRTGTRHGVDTHLFSVESPQELAAWTRQLVDGCHRAAEGVQEVSTACTWNGRPCSLSVHIDKGFTLWAAEPGAARAVLLRQPFEKLQMSSDDGASLLFLDFGGAEGEIQLDLHSCPKTIVFIIHSFLSAKVTRLGLLA
B6: β-1-Syntrophin (protein, UniProt Q13884 1-538)
chain: MAVAAAAAAAGPAGAGGGRAQRSGLLEVLVRDRWHKVLVNLSEDALVLSSEEGAAAYNGIGTATNGSFCRGAGAGHPGAGGAQPPDSPAGVRTAFTDLPEQVPESISNQKRGVKVLKQELGGLGISIKGGKENKMPILISKIFKGLAADQTQALYVGDAILSVNGADLRDATHDEAVQALKRAGKEVLLEVKYMREATPYVKKGSPVSEIGWETPPPESPRLGGSTSDPPSSQSFSFHRDRKSIPLKMCYVTRSMALADPENRQLEIHSPDAKHTVILRSKDSATAQAWFSAIHSNVNDLLTRVIAEVREQLGKTGIAGSREIRHLGWLAEKVPGESKKQWKPALVVLTEKDLLIYDSMPRRKEAWFSPVHTYPLLATRLVHSGPGKGSPQAGVDLSFATRTGTRQGIETHLFRAETSRDLSHWTRSIVQGCHNSAELIAEISTACTYKNQECRLTIHYENGFSITTEPQEGAFPKTIIQSPYEKLKMSSDDGIRMLYLDFGGKDGEIQLDLHSCPKPIVFIIHSFLSAKITRLGLVA

What follows are molecules tested against Flag::SpvD (S. Typhimurium 12023 (stated for pgfp::spvD)) (assay: affinity purification with mass spectrometry; anti-Flag M2 affinity gel on lysates of HEK293 cells transiently transfected with pflag::sseM or pflag::spvD for 16 h; buffers B and C; LC-MS/MS).

Molecule	binding
B1	no binding
B2	no binding
B3	no binding
B4	no binding

The molecules below were run against Flag::SseM (Salmonella enterica serovar Typhimurium) (UniProt Q8ZMM9) in the same assay as above.

Molecule	binding
β-2-syntrophin (from UniProt Q13425 1-540)	binds
Tubulin β-2B chain (from UniProt Q9BVA1 1-445)	binds
Utrophin (from UniProt P46939 1-3433)	binds
26S proteasome non-ATPase regulatory subunit 3 (from UniProt O43242 1-534)	binds
Dystrophin (from UniProt P11532 1-3685)	binds
B5	binds
B1	binds
B2	binds
B6	binds
B4	binds

These are yes or no findings as the source states them, for the method shown. In cells and extracts the contact can be indirect. Here binding means that the protein was enriched with, or labelled near, the bait; the list need not be complete. For some assays here: A no says only that the protein was not detected with the bait.
